## Percent effect of library compounds

The filed quantity is “Percent Effect” (%). How 0% and 100% were set is not recorded. Most values in the screen are low, and negative values occur. This is an unselected part of the compounds tested.

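Whole-parasite assay of Trypanosoma brucei over 72 hours; the read-out is not stated. Tested at 30 µM. Higher reads as stronger inhibition (inferred: compounds with an IC50 in retests scored well above the rest). Values scatter widely below zero; nearly all retest evidence comes from the higher of the two concentrations used. Size under these conditions: about 64,000 compounds, about 940 of them at 50% or above in at least one test.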

With CN(Cc1cccc(C#N)c1)Cc1nc2c(cnn2C)c(=O)[nH]1 the screen gave 15.16%.
With Cc1ccc(NC(=O)C2CSCN2C(=O)c2cc[nH]n2)c(C)c1 (stereo not given) the screen gave -3.988%.
With CCCc1cc(C(=O)N2CCCN(c3cccnn3)CC2)[nH]n1 the screen gave -4.537%.
With CC(C)CCC(=O)N1CCN(c2ncnc3nc(N)ccc23)CC1 the screen gave -35.19%.
With O=C(O)C(F)(F)F.[H][C@@]12OCCN(C(=O)c3ccoc3C)[C@@]1([H])CC[C@@H]2Oc1ccccn1 the screen gave 26.48%.
With COCCn1ccc(NCc2cc3cc(F)ccc3o2)n1 the screen gave -14.17%.
With CCc1nc(C)c(C(=O)NCCN2CCN(C(C)=O)CC2)s1 the screen gave 9.748%.
With O=c1c(NCCNCCO)c(N2CCN(c3ccccc3)CC2)c1=O the screen gave -6.13%.
With COc1cnc(N2CCCC(c3ncc[nH]3)C2)nc1 (stereo not given) the screen gave 10.28%.
With [H][C@@]12CCN(C[C@@H]1CN1CCOCC1)[C@@H](CNC(=O)Nc1ccsc1)C2 the screen gave -4.822%.
With CCn1ncnc1C(C)NC(=O)C1CCN(C(=O)COC)CC1 (stereo not given) the screen gave 10.09%.
With CC(=O)N1CCCN(C(=O)NCCCN(C)S(C)(=O)=O)CC1 the screen gave -9.904%.
With COCCN(CCOC)C(=O)c1sc(C)nc1C the screen gave -98.95%.
With CCOc1cccc2c1OCC(=O)N(c1ccc(N(C)C)cc1)C2 the screen gave -29.83%.
With Cc1nc(C)c(C(=O)N2CCCc3c(F)ccc(F)c32)o1 the screen gave -28.74%.
With Cc1nc(NC(=O)NC(CS(C)(=O)=O)c2ccccc2)sc1C (stereo not given) the screen gave 26.75%.
With COc1ccc(C(=O)N2CCOC(Cc3cccc(C(F)(F)F)c3)C2)o1 (stereo not given) the screen gave -70.36%.
With O=C(c1cn(-c2cccc(Cl)c2F)nn1)N1CCCSCC1 the screen gave -22.16%.
With N#CC1(C(=O)N2CCN(Cc3cscn3)CC2)CCCCC1 the screen gave -7.074%.
With Cc1ccc(Oc2cc(CN)ccn2)cc1C.Cl the screen gave -46.55%.
With Cc1nc(-c2ccsc2)ccc1C(=O)O the screen gave 7.93%.
With O=C(CCc1cc2n(n1)CCN(CCCn1cccc1)C2)N1CCCC1 the screen gave -9.84%.
With CC(C)C(=O)N1CCCC(Cc2ncccn2)C1 (stereo not given) the screen gave -10.2%.
With Cc1ccc2c(c1)C(=O)NCC1(CCN(C(=O)c3scnc3C)CC1)O2 the screen gave 13.24%.
With CN(CC(N)=O)Cc1cc(Cl)cc2cccnc12 the screen gave -23.74%.
With COc1ccc(CN2CCC3(CC2)CC(c2cccnc2)CO3)cc1.O=C(O)C(F)(F)F.O=C(O)C(F)(F)F (stereo not given) the screen gave -67.07%.
With Cl.NC(CC1CCCC1)c1ccccc1 (stereo not given) the screen gave -30.59%.
With COCc1nn(Cc2ccc(Br)s2)c(=O)o1 the screen gave -37.49%.
With O=c1cc(Cn2cncn2)nc2n1CCCN(CC1CCOCC1)C2 the screen gave -9.295%.
With Cc1ccccc1C(=O)NC[C@@H]1CCN(C(=O)c2cccn2C)C[C@H]1O the screen gave -49.31%.
With O=C(O)C(F)(F)F.O=C(O)C(F)(F)F.[H][C@@]12COC[C@]1(CNC(=O)c1cccn1C)CN(Cc1cccc(C)n1)C2 the screen gave 12.67%.
With Cn1cc(-c2nc(C3CCN(S(C)(=O)=O)CC3)cc3c2ncn3C)cn1 the screen gave -74.19%.
With COCc1ccc(CN2CCC(O)(Cn3ccc4ncccc43)CC2)o1.Cl the screen gave 1.319%.
With CC(C)CNC(=O)c1cccc(Oc2ccc3nncn3n2)c1 the screen gave -18.53%.
With CCCS(=O)(=O)N1CC(=O)N(CCCc2ccccc2)CC(O)C1 (stereo not given) the screen gave -13.33%.
With Cc1cc(C)n(C2CCN(c3ncnc4c3CCC4)C2)n1 (stereo not given) the screen gave -19.32%.
With CN(C)CC1CN(c2cnc3ccccc3n2)CCO1 (stereo not given) the screen gave -11.02%.
With Cc1ccc(C(=O)NCCCNS(C)(=O)=O)c(=O)[nH]1 the screen gave 2.709%.
With [H][C@@]12CS(=O)(=O)C[C@]1([H])N(C(=O)c1cnccn1)CCN2C(=O)C1CCC1 the screen gave 6.298%.
With Cn1cc(Cl)c(CN(Cc2ccsc2)CC2CCCO2)n1 (stereo not given) the screen gave -33.56%.
With CC1=C(C#N)C(=O)NC(=O)/C1=C\c1c(C)nn(-c2ccc(C)cc2)c1O the screen gave -26.63%.
With O=C(NCC1CC1)C1=NOC2(CCN(S(=O)(=O)c3ccc(F)cc3)C2)C1 (stereo not given) the screen gave -12.37%.
With CN1CC(C(=O)NCCc2ccc3c(c2)OCCO3)CC1=O (stereo not given) the screen gave -30.58%.
With [H][C@@]12CCCN1C[C@H](CCSC)N(Cc1cn(CC)nc1C)C2 the screen gave -9.956%.
With CC(CS(C)(=O)=O)N(C(=O)CCc1cccc(F)c1)C1CC1 (stereo not given) the screen gave -5%.
With Cc1nn(C)cc1CNC(=O)c1cn(CCC2CCCCN2)nn1 (stereo not given) the screen gave 34.43%.
With COCC(=O)N1CCC2(CC1)C(=O)N(Cc1cccnc1)CCN2C.O=C(O)C(F)(F)F.O=C(O)C(F)(F)F the screen gave -21.07%.
With Fc1ccc(-c2nnc(CNC3CCc4ncnn4C3)o2)cc1 (stereo not given) the screen gave 4.796%.
With Nc1nccc(-c2cccc3ccnn23)n1 the screen gave -14.25%.
With Cc1nnsc1C(=O)N1CCC(c2nc3ccccc3[nH]2)CC1 the screen gave -14.95%.
With COC(=O)C1CN(Cc2nc(C(C)(C)C)cs2)C[C@@H](C)O1 (stereo not given in full) the screen gave 2.207%.
With Cn1ccnc1CN1CCCC(CCc2ccc(F)c(F)c2)C1 (stereo not given) the screen gave -20.46%.
With Cc1nn(C)cc1S(=O)(=O)N[C@@H]1CCC[C@@H](N2CCCC2)[C@@H]1O the screen gave -5.932%.
With CCN1C(=O)C2(CCCCC2)NC12CCSCC2 the screen gave -1.355%.
With Cn1nccc1C(=O)NC(C)(C)c1noc(C(C)(C)C)n1 the screen gave -2.147%.
With CN(Cc1ccccn1)C(C(=O)O)c1ccc2c(c1)OCO2 (stereo not given) the screen gave 9.963%.
With N[C@H]1CC[C@@H](CN2CCCn3nc(CNC(=O)C4CCC4)cc3C2)CC1 the screen gave -20.89%.
With Cc1csc(N2CCN(C(=O)c3ccc(C)s3)CC2)n1 the screen gave -12.43%.

3 of the entries, repeated:

Compound	Percent Effect
CC(C)CCC(=O)N1CCN(c2ncnc3nc(N)ccc23)CC1	-35.19
O=C(NCC1CC1)C1=NOC2(CCN(S(=O)(=O)c3ccc(F)cc3)C2)C1 (stereo not given)	-12.37
Cn1cc(-c2nc(C3CCN(S(C)(=O)=O)CC3)cc3c2ncn3C)cn1	-74.19

The values are deposited in ChEMBL (CHEMBL3988442, “University of Dundee, Small-Polar-MMV Screening Library” (2021)).